Source: the supplement of paper PMC11732987, “Enantioselective OTUD7B fragment discovery through chemoproteomics screening and high-throughput optimisation” (Communications Chemistry, 2025)
Some of the results follow. The data scatter; read single values as rough.

By UniProt entry, the sequences of proteins in these tests, tags left out. Where a name states a change or a piece, a line headed by the entry shows the natural chain unless it says otherwise. Residues count along the entry.
UniProt Q7Z2Z2, 453-476: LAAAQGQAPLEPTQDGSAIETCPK
UniProt Q14204, whole entry, looked up: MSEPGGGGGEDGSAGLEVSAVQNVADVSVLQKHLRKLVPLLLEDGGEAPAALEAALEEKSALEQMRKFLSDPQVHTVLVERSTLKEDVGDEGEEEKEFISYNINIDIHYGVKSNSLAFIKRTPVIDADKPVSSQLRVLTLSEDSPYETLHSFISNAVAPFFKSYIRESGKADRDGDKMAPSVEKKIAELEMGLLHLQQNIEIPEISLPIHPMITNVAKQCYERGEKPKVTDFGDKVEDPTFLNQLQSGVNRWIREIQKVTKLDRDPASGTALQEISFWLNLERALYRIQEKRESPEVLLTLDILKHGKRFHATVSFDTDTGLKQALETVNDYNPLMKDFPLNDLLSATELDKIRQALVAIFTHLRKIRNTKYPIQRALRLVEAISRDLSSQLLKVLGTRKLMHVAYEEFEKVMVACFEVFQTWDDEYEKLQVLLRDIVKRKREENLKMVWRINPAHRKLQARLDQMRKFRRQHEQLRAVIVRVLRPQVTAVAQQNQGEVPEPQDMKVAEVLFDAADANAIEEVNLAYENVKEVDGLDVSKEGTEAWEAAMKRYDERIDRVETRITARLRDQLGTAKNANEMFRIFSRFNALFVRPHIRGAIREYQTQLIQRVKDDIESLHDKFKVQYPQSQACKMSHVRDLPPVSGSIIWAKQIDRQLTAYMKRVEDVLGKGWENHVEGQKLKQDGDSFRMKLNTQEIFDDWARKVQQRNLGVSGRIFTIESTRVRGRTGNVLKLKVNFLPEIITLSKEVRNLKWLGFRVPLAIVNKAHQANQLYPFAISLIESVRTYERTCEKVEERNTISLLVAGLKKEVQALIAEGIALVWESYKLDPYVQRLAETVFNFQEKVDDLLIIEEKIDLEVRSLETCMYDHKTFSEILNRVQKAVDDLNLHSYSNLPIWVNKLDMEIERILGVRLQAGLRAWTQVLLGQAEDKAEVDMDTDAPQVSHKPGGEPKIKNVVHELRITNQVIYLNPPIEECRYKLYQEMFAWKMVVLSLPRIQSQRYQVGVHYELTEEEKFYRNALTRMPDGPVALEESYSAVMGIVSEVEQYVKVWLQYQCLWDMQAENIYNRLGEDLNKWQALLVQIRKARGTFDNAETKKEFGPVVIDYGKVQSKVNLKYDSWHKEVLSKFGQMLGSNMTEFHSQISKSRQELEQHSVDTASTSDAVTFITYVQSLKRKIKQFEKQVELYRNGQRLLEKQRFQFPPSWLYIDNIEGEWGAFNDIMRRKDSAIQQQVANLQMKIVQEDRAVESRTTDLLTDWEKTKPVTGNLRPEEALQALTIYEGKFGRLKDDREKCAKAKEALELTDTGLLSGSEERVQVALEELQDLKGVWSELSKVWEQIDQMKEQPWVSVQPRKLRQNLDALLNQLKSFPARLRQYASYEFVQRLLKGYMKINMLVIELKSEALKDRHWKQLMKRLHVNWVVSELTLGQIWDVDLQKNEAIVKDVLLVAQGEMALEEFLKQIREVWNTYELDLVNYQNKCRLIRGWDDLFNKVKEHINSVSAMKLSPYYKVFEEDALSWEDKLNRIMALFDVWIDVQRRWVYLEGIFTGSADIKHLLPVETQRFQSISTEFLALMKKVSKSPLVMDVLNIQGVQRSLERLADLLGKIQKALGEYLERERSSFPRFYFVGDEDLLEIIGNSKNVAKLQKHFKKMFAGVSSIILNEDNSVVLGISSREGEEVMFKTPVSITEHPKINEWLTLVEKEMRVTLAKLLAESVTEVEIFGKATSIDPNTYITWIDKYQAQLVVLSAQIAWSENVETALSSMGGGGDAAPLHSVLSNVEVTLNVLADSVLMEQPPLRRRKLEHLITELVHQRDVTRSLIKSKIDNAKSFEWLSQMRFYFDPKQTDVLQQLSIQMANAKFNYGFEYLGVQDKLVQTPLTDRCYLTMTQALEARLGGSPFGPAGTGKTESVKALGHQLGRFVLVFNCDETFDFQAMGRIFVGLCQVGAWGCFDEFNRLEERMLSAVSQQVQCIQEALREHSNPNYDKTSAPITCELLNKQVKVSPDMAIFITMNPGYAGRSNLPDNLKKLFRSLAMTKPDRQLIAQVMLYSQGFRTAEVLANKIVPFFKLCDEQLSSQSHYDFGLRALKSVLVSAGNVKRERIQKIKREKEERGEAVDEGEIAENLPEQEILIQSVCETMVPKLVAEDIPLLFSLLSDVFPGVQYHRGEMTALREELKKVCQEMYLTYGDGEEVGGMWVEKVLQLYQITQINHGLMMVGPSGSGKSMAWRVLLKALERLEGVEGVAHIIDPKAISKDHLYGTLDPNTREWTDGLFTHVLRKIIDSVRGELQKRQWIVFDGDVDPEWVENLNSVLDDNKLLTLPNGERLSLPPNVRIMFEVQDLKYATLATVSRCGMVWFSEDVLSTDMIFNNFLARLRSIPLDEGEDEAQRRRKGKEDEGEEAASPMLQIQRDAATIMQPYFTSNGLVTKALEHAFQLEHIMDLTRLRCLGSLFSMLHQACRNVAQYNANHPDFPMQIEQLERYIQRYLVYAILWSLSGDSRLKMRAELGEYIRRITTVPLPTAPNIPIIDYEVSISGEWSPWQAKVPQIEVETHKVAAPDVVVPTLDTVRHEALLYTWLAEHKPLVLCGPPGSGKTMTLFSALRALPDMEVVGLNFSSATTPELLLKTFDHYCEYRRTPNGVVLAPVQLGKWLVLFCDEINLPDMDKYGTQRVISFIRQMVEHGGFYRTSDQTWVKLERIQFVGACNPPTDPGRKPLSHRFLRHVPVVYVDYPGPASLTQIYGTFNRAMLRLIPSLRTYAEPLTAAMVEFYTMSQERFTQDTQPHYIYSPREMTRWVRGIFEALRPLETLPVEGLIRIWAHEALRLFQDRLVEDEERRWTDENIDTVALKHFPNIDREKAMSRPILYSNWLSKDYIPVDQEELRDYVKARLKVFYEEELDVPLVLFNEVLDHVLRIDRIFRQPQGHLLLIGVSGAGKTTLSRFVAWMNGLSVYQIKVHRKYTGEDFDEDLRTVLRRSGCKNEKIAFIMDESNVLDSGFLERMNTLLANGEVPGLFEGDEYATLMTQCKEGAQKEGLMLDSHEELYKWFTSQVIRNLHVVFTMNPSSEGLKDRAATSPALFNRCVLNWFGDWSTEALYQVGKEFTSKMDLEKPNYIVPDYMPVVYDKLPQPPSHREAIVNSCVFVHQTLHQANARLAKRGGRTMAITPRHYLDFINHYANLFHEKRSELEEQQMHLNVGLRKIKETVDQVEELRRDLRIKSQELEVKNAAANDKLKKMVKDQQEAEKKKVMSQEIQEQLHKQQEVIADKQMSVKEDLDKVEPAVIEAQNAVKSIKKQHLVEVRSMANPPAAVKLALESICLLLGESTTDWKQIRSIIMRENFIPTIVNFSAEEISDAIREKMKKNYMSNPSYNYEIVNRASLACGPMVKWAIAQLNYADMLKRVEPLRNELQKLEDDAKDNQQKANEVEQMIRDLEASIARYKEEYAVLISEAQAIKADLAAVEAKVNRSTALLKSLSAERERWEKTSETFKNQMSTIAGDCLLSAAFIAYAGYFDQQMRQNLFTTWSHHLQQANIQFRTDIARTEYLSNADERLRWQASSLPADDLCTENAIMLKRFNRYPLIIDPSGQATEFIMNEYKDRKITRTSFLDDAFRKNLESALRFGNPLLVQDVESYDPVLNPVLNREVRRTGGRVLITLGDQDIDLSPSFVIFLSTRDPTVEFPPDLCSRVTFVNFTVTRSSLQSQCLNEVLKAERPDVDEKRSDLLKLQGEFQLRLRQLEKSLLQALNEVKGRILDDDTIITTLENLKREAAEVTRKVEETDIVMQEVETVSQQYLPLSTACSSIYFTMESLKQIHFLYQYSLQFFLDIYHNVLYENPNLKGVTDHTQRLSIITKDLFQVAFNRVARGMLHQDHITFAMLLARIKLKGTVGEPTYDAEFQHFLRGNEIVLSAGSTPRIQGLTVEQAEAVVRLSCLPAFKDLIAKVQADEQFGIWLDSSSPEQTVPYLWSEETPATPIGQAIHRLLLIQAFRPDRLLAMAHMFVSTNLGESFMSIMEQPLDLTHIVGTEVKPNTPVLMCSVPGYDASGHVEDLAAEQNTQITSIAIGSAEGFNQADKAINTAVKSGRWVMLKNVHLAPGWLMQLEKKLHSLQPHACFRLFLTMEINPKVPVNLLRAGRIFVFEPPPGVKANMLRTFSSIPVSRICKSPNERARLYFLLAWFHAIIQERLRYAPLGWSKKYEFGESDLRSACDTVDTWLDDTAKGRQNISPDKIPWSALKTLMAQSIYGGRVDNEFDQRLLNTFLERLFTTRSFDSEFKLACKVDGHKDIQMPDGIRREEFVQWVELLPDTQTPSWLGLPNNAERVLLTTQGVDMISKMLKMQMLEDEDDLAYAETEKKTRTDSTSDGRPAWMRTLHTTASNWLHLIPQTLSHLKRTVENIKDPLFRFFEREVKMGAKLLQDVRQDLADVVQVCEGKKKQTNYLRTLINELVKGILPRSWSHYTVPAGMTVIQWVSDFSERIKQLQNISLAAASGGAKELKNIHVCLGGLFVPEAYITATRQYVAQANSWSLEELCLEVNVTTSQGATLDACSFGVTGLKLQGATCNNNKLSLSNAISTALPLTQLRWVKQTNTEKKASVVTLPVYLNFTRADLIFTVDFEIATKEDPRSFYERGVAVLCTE
UniProt Q6P2E9: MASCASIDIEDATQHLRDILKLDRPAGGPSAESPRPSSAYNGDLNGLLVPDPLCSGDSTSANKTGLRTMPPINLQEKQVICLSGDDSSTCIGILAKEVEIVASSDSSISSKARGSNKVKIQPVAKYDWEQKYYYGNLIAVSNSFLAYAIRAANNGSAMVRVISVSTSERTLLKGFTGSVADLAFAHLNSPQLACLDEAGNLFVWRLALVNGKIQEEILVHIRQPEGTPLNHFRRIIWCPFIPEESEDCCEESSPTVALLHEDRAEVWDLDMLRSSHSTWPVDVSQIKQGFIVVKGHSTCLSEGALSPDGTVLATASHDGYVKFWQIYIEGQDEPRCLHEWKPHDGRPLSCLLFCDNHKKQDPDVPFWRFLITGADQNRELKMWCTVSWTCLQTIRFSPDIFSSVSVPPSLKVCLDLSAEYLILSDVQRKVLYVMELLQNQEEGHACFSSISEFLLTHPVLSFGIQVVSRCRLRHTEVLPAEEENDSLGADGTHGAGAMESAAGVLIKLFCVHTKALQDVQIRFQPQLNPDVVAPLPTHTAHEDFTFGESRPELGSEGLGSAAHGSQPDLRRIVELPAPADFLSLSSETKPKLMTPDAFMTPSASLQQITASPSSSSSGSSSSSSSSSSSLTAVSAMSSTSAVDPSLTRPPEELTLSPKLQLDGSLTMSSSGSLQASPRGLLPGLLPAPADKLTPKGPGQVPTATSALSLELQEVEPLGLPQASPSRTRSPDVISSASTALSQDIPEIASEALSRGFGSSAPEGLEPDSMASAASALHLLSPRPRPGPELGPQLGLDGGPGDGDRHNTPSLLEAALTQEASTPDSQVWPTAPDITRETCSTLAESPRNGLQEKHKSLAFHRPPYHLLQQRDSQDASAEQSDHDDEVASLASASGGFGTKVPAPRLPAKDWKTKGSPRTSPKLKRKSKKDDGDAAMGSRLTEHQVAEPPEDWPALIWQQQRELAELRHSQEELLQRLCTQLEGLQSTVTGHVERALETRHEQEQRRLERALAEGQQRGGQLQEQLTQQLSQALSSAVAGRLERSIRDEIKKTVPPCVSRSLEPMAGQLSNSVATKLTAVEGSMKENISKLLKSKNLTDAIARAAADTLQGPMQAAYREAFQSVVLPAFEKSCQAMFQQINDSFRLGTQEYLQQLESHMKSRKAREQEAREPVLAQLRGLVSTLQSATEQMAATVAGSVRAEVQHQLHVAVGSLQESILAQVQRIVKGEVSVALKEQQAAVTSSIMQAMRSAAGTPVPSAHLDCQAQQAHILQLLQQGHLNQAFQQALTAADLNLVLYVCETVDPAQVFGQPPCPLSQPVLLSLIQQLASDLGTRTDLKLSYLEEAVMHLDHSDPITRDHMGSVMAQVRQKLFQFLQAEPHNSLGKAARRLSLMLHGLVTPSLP
UniProt Q5JPH6: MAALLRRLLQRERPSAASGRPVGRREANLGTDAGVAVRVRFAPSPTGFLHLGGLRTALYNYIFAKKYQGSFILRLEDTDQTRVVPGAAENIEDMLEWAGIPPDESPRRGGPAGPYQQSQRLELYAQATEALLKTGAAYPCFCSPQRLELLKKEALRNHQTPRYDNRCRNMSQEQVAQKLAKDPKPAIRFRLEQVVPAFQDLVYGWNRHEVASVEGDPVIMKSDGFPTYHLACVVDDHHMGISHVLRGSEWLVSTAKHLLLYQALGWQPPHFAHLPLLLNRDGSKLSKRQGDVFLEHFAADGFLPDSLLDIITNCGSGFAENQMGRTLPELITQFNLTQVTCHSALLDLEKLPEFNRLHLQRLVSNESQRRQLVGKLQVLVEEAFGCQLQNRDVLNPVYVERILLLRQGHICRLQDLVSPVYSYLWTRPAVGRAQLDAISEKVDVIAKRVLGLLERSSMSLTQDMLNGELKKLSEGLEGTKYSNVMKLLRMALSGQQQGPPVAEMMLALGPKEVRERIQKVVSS

These targets were tested with ClCC(=O)N[C@@H]1CCCc2ccccc12 (assay: log2 mean competition ratio of IA-DTB cysteine labelling (DMSO/compound) (log2 ratio); higher = stronger cysteine engagement by compound). Conditions: 50 µM; treatment time: 4 h; cell line lysate: HEK293T.
Description: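 IA-DTB competitive cysteine chemoproteomics in HEK293T RIPA lysate. Lysates were treated with compound 29 or 30 at 50 or 200 µM for 4 h, then IA-DTB (500 µM, 1 h), trypsin-digested, NeutrAvidin-enriched and analysed by diaPASEF. Competition ratio = intensity DMSO / intensity compound (n=4 treated, n=64 DMSO); binding: mean log2 CR ≥ 1 and p ≤ 0.05 plus QC filters. Target is the cysteine site.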

Target | log2 mean competition ratio
DSC2 C898 (UniProt Q02487) | -0.0541
EFEMP1 C190 (UniProt Q12805) | -0.000442
EFL1 C474 (UniProt Q7Z2Z2) | -0.375
DYNC1H1 C4216 (UniProt Q14204) | -0.232
DYNC2H1 C3277 (UniProt Q8NCM8) | 0.269
DYNC2I1 C57 | -0.24
EDC4 C4 (UniProt Q6P2E9) | -0.216
EIF4G3 C1411 | -0.199
EIF4EBP1 C62 (UniProt Q13541) | 0.125
EARS2 C386 (UniProt Q5JPH6) | 0.16
DRG2 C270 (UniProt P55039) | 0.0369
DYNC2H1 C3657 (UniProt Q8NCM8) | 0.179
DYNC1H1 C3712 (UniProt Q14204) | -0.103
DSTN C23 (UniProt P60981) | -0.0736
DSP C1855 (UniProt P15924) | -0.269
ECI2 C368 (UniProt O75521) | -0.089
DSP C1052 (UniProt P15924) | -0.0773
EDRF1 C1007 (UniProt Q3B7T1) | -0.0229
ELL C14 (UniProt P55199) | 0.11

Target | log2 mean competition ratio
DYNC1H1 C633 (UniProt Q14204) | 0.24
EIF3A C198 (UniProt Q14152) | 0.193
EFNB1 C314 (UniProt P98172) | 0.0427
EIF4E3 C69 (UniProt Q8N5X7) | -0.196
EEF2 C567 (UniProt P13639) | -0.00022
DTX3L C309 (UniProt Q8TDB6) | 0.269
EEF2 C41 (UniProt P13639) | -0.0511
EDC4 C838 (UniProt Q6P2E9) | -0.0299
DTX3L C219 (UniProt Q8TDB6) | -0.205
DUSP12 C11 | -0.15
ELAC2 C136 (UniProt Q9BQ52) | -0.0403
DYNC1H1 C867 (UniProt Q14204) | -0.0722
EIF3C C79 (UniProt Q99613) | -0.00255
DUSP11 C211 | 0.0255
EIF5 C122 (UniProt P55010) | -0.15
DRG2 C319 (UniProt P55039) | 0.133
DSP C798 (UniProt P15924) | -0.234
EDC4 C510 (UniProt Q6P2E9) | 0.289
EFCAB7 C121 (UniProt A8K855) | -0.373

Single values from the list.
log2 mean competition ratio with DSP C798 (UniProt P15924) reads -0.234
log2 mean competition ratio with EIF4E3 C69 (UniProt Q8N5X7) reads -0.196
